No constants are given. Whether binding was seen depends on the method and setting. Some entries that bind do so weakly or less than the wild type.

Protein sequences, listed by entry. Tags and fused reporters are not part of them. Residues count along the entry.
UniProt P35968, residues 20-1356: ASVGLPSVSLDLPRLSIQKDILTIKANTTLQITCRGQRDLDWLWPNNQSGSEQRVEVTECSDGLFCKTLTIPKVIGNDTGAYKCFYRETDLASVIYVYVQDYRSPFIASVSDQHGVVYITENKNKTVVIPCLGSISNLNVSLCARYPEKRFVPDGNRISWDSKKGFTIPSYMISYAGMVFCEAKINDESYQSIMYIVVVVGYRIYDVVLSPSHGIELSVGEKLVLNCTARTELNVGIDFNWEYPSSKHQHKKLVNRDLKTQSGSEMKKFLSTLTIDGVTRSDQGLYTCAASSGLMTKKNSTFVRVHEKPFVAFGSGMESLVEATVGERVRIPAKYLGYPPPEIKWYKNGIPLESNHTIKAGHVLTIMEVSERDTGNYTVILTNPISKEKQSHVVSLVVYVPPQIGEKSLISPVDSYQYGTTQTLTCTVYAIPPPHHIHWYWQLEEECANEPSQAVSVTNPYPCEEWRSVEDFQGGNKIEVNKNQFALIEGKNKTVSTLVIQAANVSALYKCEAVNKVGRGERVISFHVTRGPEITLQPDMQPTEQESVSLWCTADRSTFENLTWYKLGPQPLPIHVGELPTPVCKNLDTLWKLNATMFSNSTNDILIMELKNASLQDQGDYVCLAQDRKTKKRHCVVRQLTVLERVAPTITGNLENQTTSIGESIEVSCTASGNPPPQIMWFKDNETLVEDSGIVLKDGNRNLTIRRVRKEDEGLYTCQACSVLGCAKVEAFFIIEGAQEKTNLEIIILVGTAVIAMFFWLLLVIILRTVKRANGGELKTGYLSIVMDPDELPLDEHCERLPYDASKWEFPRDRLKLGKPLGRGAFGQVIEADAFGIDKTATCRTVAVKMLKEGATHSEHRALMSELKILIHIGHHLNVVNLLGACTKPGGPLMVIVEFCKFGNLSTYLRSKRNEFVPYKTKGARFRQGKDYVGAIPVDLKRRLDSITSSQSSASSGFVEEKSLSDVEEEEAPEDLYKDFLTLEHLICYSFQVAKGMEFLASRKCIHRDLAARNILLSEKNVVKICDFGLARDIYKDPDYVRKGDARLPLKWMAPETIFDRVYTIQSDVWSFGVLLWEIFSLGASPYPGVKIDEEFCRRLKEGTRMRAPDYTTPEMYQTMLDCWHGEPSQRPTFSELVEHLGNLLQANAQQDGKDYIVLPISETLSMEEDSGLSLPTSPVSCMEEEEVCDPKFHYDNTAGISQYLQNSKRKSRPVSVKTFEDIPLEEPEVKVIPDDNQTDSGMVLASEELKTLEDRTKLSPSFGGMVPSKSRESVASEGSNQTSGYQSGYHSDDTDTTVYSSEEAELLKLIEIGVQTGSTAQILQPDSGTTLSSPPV

In this experiment the target is KDR receptor (VEGFR-2) (UniProt P35968). In words: displacement of 125I-VEGF from CHOm VEGFR2 cells. (Displacement assays read how much labelled ligand stays bound in the presence of the test substance.)

B1: P24 (peptide)
peptide: GRIKPH
modifications: cyclic (cyclo, ends of the linear peptide coupled)
notes: Cyclopeptide; also called cyclo(Gly-Arg-Ile-Lys-Pro-His)
For B1, the binding entry was “binds”.

With PRIKPHQG (cyclic (cyclo, ends of the linear peptide coupled), Cyclopeptide) [P17], the binding entry was “binds”.

For the origin of these results see patent USRE44022 (COMMISSARIAT A L ENERGIE ATOMIQUE, dated 2013).
